These results are taken from paper PMC5467174.

Sequences of proteins named here, by UniProt entry; tags and fusion partners are left off.
UniProt Q8NDV7: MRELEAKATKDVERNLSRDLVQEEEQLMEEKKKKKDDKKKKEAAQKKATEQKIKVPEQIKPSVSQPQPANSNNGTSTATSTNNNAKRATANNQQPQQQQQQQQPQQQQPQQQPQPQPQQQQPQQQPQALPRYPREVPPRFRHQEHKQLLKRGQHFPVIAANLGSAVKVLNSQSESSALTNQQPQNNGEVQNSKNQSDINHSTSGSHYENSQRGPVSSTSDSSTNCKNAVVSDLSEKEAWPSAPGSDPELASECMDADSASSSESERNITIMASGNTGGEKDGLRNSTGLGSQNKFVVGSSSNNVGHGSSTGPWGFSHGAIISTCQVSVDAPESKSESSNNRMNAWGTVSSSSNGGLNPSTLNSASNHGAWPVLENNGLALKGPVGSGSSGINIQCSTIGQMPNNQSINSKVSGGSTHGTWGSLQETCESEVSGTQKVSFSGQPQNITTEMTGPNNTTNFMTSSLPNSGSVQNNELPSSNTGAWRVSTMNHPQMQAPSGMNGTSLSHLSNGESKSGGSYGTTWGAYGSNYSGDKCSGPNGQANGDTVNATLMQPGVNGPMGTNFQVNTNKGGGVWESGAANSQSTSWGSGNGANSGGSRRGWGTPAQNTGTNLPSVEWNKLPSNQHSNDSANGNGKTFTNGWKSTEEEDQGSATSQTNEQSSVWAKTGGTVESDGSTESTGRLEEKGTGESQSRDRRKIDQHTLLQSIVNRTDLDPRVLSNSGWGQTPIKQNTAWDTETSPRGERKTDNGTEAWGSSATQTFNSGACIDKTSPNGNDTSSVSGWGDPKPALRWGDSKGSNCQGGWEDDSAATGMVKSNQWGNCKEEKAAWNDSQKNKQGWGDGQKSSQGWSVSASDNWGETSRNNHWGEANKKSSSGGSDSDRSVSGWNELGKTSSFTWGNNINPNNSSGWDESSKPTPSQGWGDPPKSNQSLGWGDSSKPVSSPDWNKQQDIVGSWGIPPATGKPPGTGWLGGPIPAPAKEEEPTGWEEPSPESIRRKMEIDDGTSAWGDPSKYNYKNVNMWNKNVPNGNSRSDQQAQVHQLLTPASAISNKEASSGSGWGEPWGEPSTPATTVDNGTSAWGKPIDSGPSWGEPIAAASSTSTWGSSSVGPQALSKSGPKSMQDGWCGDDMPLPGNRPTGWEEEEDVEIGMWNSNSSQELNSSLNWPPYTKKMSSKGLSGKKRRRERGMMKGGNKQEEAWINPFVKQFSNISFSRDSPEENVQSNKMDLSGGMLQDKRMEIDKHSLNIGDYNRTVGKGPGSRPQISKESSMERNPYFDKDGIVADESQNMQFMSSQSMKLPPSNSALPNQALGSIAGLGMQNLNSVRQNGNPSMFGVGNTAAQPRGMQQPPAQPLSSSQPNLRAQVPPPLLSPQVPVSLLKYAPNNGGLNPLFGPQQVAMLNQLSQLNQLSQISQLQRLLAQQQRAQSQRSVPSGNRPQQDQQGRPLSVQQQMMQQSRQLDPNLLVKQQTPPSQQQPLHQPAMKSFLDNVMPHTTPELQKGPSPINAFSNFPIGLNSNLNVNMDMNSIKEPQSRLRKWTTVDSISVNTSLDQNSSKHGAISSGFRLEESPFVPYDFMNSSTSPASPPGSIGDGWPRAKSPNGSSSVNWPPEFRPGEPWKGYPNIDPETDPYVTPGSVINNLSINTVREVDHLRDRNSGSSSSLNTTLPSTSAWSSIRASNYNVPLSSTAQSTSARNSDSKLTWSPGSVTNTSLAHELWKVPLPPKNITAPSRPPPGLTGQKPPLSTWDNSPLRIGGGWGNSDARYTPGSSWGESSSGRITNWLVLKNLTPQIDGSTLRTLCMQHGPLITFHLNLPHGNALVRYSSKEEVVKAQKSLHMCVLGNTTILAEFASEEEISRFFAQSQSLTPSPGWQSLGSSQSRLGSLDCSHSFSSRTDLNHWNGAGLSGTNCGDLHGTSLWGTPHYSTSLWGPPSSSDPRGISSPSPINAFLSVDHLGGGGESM

These are yes or no findings as the source states them, for the method shown. In cells and extracts the contact can be indirect. Some results given as binding are weak or reduced against the parent protein; the word gives no strength.

This test has as its target TNRC6A (human (endogenous in HeLa)) (UniProt Q8NDV7). Nature of the test: co-IP; endogenous proteins from HeLa 11ht lysate, without micrococcal nuclease; anti-Ago2, anti-TNRC6A, anti-GIGYF2 or control IgG (5 μg each) on beads; western blot.

B1: GIGYF2 (protein, UniProt Q6Y7W6 1-1299)
chain: MAAETQTLNFGPEWLRALSSGGSITSPPLSPALPKYKLADYRYGREEMLALFLKDNKIPSDLLDKEFLPILQEEPLPPLALVPFTEEEQRNFSMSVNSAAVLRLTGRGGGGTVVGAPRGRSSSRGRGRGRGECGFYQRSFDEVEGVFGRGGGREMHRSQSWEERGDRRFEKPGRKDVGRPNFEEGGPTSVGRKHEFIRSESENWRIFREEQNGEDEDGGWRLAGSRRDGERWRPHSPDGPRSAGWREHMERRRRFEFDFRDRDDERGYRRVRSGSGSIDDDRDSLPEWCLEDAEEEMGTFDSSGAFLSLKKVQKEPIPEEQEMDFRPVDEGEECSDSEGSHNEEAKEPDKTNKKEGEKTDRVGVEASEETPQTSSSSARPGTPSDHQSQEASQFERKDEPKTEQTEKAEEETRMENSLPAKVPSRGDEMVADVQQPLSQIPSDTASPLLILPPPVPNPSPTLRPVETPVVGAPGMGSVSTEPDDEEGLKHLEQQAEKMVAYLQDSALDDERLASKLQEHRAKGVSIPLMHEAMQKWYYKDPQGEIQGPFNNQEMAEWFQAGYFTMSLLVKRACDESFQPLGDIMKMWGRVPFSPGPAPPPHMGELDQERLTRQQELTALYQMQHLQYQQFLIQQQYAQVLAQQQKAALSSQQQQQLALLLQQFQTLKMRISDQNIIPSVTRSVSVPDTGSIWELQPTASQPTVWEGGSVWDLPLDTTTPGPALEQLQQLEKAKAAKLEQERREAEMRAKREEEERKRQEELRRQQEEILRRQQEEERKRREEEELARRKQEEALRRQREQEIALRRQREEEERQQQEEALRRLEERRREEEERRKQEELLRKQEEEAAKWAREEEEAQRRLEENRLRMEEEAARLRHEEEERKRKELEVQRQKELMRQRQQQQEALRRLQQQQQQQQLAQMKLPSSSTWGQQSNTTACQSQATLSLAEIQKLEEERERQLREEQRRQQRELMKALQQQQQQQQQKLSGWGNVSKPSGTTKSLLEIQQEEARQMQKQQQQQQQHQQPNRARNNTHSNLHTSIGNSVWGSINTGPPNQWASDLVSSIWSNADTKNSNMGFWDDAVKEVGPRNSTNKNKNNASLSKSVGVSNRQNKKVEEEEKLLKLFQGVNKAQDGFTQWCEQMLHALNTANNLDVPTFVSFLKEVESPYEVHDYIRAYLGDTSEAKEFAKQFLERRAKQKANQQRQQQQLPQQQQQQPPQQPPQQPQQQDSVWGMNHSTLHSVFQTNQSNNQQSNFEAVQSGKKKKKQKMVRADPSLLGFSVNASSERLNMGEIETLDDY
As to B1, the binding entry is “binds weakly”.
